PubChem BioAssay AID1053208 – Peter MacCallum Cancer Centre, 2014

Purpose: 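Synthetic lethal interactions between gene loss and doxorubicin in osteosarcoma cells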 (primary screen)
Cells: mouse osteosarcoma cells, early-passage culture from an engineered mouse model of fibroblastic bone tumour
Reagents: siRNA pool against mouse genes, 40 nM
Time to read-out: about 120 h (48 h before drug, then 72 h with drug)
Treatment: doxorubicin 100 nM for 72 h, roughly 30-40% inhibitory dose
Measurement: 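Viability read as ATP luminescence after 72 h of 100 nM doxorubicin or none, duplicate wells averaged, scaled to non-targeting siRNA, then expressed as robust z-scores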
Direction: viability z-score with doxorubicin: higher = more viable cells under doxorubicin; viability z-score without drug: higher = more viable cells with knock-down alone
Rule for the call: 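Called active if knock-down leaves viability unchanged without drug (z within -2 to 2) but lowers it with doxorubicin (z at or under -2)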
Shown is one part, drawn at random, of about 17,000 reagents tested. Of all reagents, 788 (4.7%) were called active. 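Calls rest on z-score classes alone; an extra cut-off of viability at most 70% of control was not applied to them.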 Unmarked entries are inactive. Further read-outs or replicates are left out here.

Depletion of Mfap5 (microfibrillar associated protein 5) came out at: combined z-score class low cell count with doxorubicin only (active); viability z-score with doxorubicin -3.15; viability z-score without drug -1.18.
Knock-down of Tagln2 (transgelin 2) gave: combined z-score class no change with or without drug; viability z-score with doxorubicin 0; viability z-score without drug -0.67.
For Mterf1b (mitochondrial transcription termination factor 1b), the entry reads combined z-score class no change with or without drug; viability z-score with doxorubicin -0.22; viability z-score without drug 0.51.
Against Ttc8 (tetratricopeptide repeat domain 8), the entry reads combined z-score class no change with or without drug; viability z-score with doxorubicin 0.67; viability z-score without drug 0.
Depletion of Lin37 (lin-37 DREAM MuvB core complex component) came out at: combined z-score class no change with or without drug; viability z-score with doxorubicin 0.11; viability z-score without drug 0.51.
With knock-down of Foxe3 (forkhead box E3), the record shows combined z-score class no change with or without drug; viability z-score with doxorubicin 0.22; viability z-score without drug 1.85.
St6galnac5 showed combined z-score class no change with or without drug; viability z-score with doxorubicin 0; viability z-score without drug -0.67.
Zc3h13 (zinc finger CCCH type containing 13) gave combined z-score class low cell count with doxorubicin only (active); viability z-score with doxorubicin -2.25; viability z-score without drug -0.84.
Parp11 (poly (ADP-ribose) polymerase family, member 11) scored combined z-score class no change with or without drug; viability z-score with doxorubicin 1.01; viability z-score without drug 1.18.
Knock-down of Slc33a1 resulted in: combined z-score class low cell count without drug only; viability z-score with doxorubicin -0.79; viability z-score without drug -2.36.
Depletion of Eif4ebp1 came out at: combined z-score class no change with or without drug; viability z-score with doxorubicin -0.67; viability z-score without drug 0.17.
For Pnpla8 (patatin-like phospholipase domain containing 8) the deposit lists combined z-score class no change with or without drug; viability z-score with doxorubicin -1.91; viability z-score without drug -0.67.

Single entries from the list.
For “viability z-score with doxorubicin”, Mfap5 (microfibrillar associated protein 5) reads -3.15 (active)
Tagln2 (transgelin 2), combined z-score class = no change with or without drug
